This test deals with T1, Zinc Finger and BTB Domain Containing 20 (ZBTB20) (human (endogenous in SPCA1 and PC9)) (UniProt Q9HC78).
T1 sequence: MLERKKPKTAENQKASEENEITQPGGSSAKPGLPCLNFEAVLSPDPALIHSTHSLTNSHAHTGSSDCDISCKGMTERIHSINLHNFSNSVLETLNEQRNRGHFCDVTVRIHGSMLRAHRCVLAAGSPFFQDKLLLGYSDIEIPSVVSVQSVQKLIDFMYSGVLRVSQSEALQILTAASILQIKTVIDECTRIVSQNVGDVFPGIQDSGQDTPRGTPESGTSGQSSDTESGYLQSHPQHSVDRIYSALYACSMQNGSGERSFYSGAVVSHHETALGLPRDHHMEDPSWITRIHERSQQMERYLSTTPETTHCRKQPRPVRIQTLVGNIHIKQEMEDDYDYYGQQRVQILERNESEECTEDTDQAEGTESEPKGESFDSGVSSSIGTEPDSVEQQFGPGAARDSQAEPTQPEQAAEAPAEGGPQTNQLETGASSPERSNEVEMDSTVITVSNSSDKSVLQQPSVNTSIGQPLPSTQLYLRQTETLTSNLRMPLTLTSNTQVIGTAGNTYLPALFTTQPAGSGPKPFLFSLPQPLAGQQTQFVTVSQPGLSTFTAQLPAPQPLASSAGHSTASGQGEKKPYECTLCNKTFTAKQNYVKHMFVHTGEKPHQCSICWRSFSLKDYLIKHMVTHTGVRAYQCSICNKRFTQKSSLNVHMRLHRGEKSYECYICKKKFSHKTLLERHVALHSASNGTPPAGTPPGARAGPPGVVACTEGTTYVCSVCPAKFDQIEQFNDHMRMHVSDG
Kind of test: co-IP; RIPA lysates of SPCA1 and PC9 cells incubated overnight at 4 °C with specific antibodies or control IgG; captured on Protein A/G agarose beads for 2 h at 4 °C, washed four times; Western blot. A general note: A western blot detects proteins with antibodies after separation by electrophoresis.

Protein sequences, listed by entry. Tags and fused reporters are not part of them.
UniProt Q63HN8: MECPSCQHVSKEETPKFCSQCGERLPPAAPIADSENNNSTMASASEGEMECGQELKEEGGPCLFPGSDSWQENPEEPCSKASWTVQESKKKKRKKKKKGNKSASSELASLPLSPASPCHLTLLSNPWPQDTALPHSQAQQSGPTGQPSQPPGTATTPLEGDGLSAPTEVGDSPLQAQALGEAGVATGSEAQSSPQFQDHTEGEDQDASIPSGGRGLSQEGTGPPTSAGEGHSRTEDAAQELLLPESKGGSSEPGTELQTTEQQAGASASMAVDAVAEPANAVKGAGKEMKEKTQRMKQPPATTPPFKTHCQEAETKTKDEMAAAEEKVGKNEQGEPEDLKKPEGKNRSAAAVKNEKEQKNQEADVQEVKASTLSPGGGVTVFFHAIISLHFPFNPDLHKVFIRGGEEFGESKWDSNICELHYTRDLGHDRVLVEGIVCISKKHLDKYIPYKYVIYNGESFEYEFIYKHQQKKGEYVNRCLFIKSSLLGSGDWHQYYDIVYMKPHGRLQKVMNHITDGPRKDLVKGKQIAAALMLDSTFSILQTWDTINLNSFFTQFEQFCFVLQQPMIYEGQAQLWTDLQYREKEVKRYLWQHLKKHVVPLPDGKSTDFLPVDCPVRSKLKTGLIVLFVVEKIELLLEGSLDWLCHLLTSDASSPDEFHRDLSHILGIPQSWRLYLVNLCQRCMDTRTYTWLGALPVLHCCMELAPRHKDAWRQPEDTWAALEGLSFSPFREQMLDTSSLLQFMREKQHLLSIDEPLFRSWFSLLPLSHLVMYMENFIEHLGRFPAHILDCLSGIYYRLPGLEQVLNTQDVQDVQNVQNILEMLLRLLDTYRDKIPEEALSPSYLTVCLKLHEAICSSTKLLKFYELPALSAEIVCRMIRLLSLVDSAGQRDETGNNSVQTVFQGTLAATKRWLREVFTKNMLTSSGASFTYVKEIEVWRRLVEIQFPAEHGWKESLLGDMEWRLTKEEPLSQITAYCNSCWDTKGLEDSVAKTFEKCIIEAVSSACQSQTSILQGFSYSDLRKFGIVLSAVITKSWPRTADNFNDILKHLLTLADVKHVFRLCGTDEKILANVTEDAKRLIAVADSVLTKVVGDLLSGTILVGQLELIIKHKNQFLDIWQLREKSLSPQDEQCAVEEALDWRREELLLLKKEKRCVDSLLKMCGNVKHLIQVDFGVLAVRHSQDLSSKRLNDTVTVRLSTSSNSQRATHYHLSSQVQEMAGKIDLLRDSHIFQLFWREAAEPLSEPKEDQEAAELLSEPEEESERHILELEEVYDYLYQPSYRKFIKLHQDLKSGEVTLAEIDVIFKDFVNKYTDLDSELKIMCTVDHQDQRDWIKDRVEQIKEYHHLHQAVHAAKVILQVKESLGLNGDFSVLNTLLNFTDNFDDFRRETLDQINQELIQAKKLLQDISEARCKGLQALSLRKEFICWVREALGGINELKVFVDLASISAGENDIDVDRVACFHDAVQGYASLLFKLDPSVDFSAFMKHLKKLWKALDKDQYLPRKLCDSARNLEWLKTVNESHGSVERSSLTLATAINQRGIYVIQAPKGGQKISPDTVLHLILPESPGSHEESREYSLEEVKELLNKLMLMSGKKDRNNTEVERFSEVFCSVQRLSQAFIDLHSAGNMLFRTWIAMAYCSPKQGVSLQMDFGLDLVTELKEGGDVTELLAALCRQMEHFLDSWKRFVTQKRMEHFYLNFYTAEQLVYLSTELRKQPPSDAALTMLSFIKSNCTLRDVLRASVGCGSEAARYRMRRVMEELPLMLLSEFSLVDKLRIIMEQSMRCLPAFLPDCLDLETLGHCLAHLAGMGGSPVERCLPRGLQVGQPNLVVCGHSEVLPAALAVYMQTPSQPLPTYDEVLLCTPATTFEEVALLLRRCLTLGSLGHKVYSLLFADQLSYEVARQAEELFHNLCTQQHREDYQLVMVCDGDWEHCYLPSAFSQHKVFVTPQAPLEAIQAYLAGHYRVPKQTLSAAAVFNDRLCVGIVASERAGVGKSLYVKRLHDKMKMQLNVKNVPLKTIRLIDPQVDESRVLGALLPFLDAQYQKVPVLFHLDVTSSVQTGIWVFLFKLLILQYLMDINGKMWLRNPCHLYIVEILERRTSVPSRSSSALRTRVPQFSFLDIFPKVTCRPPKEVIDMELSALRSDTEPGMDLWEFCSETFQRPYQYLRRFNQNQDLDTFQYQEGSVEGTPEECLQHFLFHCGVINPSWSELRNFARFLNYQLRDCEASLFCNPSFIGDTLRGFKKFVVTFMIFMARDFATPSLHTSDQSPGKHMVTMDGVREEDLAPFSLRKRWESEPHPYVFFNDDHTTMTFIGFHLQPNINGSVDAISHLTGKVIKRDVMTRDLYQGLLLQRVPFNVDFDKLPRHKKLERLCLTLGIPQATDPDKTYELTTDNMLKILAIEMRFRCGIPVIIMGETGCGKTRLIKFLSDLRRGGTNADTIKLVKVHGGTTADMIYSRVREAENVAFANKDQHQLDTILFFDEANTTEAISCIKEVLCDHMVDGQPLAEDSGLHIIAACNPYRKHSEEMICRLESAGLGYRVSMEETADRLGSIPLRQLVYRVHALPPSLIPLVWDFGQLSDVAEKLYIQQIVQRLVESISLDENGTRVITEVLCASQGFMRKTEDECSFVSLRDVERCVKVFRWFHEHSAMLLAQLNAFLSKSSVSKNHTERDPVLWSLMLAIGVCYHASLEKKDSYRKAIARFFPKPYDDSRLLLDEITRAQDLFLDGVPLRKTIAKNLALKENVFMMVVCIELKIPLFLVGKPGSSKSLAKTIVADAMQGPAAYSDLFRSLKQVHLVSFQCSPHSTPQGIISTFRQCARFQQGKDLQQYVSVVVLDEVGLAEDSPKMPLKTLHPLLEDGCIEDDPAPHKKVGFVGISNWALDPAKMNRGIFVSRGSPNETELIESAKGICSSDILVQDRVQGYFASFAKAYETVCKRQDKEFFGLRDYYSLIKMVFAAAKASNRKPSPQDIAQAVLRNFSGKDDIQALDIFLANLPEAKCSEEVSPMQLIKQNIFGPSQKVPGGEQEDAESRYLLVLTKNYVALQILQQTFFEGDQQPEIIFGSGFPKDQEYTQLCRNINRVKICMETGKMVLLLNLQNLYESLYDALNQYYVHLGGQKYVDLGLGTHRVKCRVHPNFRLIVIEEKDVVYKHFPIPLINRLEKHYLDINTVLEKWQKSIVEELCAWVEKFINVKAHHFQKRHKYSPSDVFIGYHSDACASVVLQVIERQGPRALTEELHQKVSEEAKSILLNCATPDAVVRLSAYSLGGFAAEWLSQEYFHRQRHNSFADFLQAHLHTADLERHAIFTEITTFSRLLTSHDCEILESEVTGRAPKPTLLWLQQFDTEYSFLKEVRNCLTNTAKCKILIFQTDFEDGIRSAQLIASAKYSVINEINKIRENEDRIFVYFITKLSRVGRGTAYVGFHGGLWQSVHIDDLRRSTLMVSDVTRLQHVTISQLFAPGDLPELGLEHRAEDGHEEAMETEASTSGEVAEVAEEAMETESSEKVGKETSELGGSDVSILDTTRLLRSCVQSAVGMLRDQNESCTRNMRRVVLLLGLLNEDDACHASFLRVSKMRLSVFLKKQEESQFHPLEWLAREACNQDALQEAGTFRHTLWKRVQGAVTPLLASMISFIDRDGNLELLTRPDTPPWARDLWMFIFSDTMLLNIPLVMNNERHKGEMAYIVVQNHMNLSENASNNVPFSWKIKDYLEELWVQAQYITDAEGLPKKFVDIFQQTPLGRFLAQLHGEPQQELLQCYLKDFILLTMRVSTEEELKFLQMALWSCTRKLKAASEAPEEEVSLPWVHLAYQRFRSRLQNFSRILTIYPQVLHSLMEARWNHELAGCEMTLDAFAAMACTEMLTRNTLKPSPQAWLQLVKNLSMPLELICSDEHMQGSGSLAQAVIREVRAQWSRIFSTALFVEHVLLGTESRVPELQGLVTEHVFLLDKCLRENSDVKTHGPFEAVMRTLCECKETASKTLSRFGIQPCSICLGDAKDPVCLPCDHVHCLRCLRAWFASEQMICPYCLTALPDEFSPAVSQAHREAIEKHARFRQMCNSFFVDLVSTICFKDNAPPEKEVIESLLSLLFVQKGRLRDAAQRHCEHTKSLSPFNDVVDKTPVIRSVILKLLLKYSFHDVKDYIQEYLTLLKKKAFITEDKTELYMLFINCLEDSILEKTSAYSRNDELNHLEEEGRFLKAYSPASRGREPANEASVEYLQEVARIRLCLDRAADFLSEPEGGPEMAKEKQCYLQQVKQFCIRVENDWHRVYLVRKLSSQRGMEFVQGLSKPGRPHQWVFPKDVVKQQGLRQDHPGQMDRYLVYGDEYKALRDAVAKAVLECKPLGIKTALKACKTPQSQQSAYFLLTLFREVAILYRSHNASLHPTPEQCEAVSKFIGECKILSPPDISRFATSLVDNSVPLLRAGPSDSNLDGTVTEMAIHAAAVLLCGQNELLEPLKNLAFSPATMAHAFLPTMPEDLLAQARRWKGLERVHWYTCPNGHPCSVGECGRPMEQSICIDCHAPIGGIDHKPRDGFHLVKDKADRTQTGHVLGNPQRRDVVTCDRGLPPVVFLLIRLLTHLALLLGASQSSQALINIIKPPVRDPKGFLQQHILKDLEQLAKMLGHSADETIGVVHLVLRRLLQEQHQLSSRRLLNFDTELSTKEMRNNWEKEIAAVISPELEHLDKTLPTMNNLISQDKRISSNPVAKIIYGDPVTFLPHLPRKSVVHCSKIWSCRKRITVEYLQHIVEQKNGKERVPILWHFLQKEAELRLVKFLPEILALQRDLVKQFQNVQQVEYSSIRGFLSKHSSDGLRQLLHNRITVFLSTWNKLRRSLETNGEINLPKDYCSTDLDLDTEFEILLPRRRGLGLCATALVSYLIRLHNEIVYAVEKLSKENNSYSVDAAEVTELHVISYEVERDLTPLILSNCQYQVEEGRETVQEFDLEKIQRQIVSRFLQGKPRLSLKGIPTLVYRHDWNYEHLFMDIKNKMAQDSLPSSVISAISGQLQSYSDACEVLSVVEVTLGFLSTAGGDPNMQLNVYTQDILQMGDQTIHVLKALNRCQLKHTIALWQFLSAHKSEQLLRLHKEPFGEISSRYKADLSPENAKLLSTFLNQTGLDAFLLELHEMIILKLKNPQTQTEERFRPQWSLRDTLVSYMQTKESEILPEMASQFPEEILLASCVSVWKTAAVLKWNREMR

Results are given in words; binding and its absence hold for the method and conditions named. In cells and extracts the contact can be indirect. Some results given as binding are weak or reduced against the parent protein; the word gives no strength.

On to “Ring finger protein 213 (RNF213) (from UniProt Q63HN8 1-5207) (enzyme)”, for which the binding entry was “binds”.

The values are drawn from article PMC11311407.
